The text below walks through data of paper PMC7293033.

The chains behind the UniProt entries cited, without tags or fusion partners. Where a name states a change or a piece, a line headed by the entry shows the natural chain unless it says otherwise.
UniProt Q9BZZ5: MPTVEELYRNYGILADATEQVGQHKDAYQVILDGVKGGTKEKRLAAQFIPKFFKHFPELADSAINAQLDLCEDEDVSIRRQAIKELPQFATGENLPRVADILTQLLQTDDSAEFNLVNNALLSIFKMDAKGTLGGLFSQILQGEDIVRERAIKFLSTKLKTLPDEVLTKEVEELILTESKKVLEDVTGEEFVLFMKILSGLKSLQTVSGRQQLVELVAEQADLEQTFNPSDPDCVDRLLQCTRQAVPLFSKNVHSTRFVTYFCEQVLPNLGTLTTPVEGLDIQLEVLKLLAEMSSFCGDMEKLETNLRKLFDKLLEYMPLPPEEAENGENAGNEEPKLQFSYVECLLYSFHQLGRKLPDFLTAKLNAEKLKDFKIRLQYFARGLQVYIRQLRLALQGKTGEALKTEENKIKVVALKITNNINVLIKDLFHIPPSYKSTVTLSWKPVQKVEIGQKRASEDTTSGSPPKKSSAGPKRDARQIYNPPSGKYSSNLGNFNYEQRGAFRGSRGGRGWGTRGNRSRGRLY

These are yes or no findings as the source states them, for the method shown. Binding seen in cells or lysates may run through a third protein. These calls come from enrichment with a bait or labelling near it, and not all partners need be listed. No binding means not detected with the bait.

The chains are these.
B1: THOC1 (protein, UniProt Q96FV9 1-657)
chain: MSPTPPLFSLPEARTRFTKSTREALNNKNIKPLLSTFSQVPGSENEKKCTLDQAFRGILEEEIINHSSCENVLAIISLAIGGVTEGICTASTPFVLLGDVLDCLPLDQCDTIFTFVEKNVATWKSNTFYSAGKNYLLRMCNDLLRRLSKSQNTVFCGRIQLFLARLFPLSEKSGLNLQSQFNLENVTVFNTNEQESTLGQKHTEDREEGMDVEEGEMGDEEAPTTCSIPIDYNLYRKFWSLQDYFRNPVQCYEKISWKTFLKYSEEVLAVFKSYKLDDTQASRKKMEELKTGGEHVYFAKFLTSEKLMDLQLSDSNFRRHILLQYLILFQYLKGQVKFKSSNYVLTDEQSLWIEDTTKSVYQLLSENPPDGERFSKMVEHILNTEENWNSWKNEGCPSFVKERTSDTKPTRIIRKRTAPEDFLGKGPTKKILMGNEELTRLWNLCPDNMEACKSETREHMPTLEEFFEEAIEQADPENMVENEYKAVNNSNYGWRALRLLARRSPHFFQPTNQQFKSLPEYLENMVIKLAKELPPPSEEIKTGEDEDEEDNDALLKENESPDVRRDKPVTGEQIEVFANKLGEQWKILAPYLEMKDSEIRQIECDSEDMKMRAKQLLVAWQDQEGVHATPENLINALNKSGLSDLAESLTNDNETNS
B2: SARNP (protein, UniProt P82979 1-210)
chain: MATETVELHKLKLAELKQECLARGLETKGIKQDLIHRLQAYLEEHAEEEANEEDVLGDETEEEETKPIELPVKEEEPPEKTVDVAAEKKVVKITSEIPQTERMQKRAERFNVPVSLESKKAARAARFGISSVPTKGLSSDNKPMVNLDKLKERAQRFGLNVSSISRKSEDDEKLKKRKERFGIVTSSAGTGTTEDTEAKKRKRAERFGIA
B3: POLDIP3 (protein, UniProt Q9BY77 1-421)
chain: MADISLDELIRKRGAAAKGRLNARPGVGGVRSRVGIQQGLLSQSTRTATFQQRFDARQKIGLSDARLKLGVKDAREKLLQKDARFRIKGKVQDAREMLNSRKQQTTVPQKPRQVADAREKISLKRSSPAAFINPPIGTVTPALKLTKTIQVPQQKAMAPLHPHPAGMRINVVNNHQAKQNLYDLDEDDDGIASVPTKQMKFAASGGFLHHMAGLSSSKLSMSKALPLTKVVQNDAYTAPALPSSIRTKALTNMSRTLVNKEEPPKELPAAEPVLSPLEGTKMTVNNLHPRVTEEDIVELFCVCGALKRARLVHPGVAEVVFVKKDDAITAYKKYNNRCLDGQPMKCNLHMNGNVITSDQPILLRLSDSPSMKKESELPRRVNSASSSNPPAEVDPDTILKALFKSSGASVTTQPTEFKIKL
B4: THOC6 (protein, UniProt Q86W42 1-341)
chain: MERAVPLAVPLGQTEVFQALQRLHMTIFSQSVSPCGKFLAAGNNYGQIAIFSLSSALSSEAKEESKKPVVTFQAHDGPVYSMVSTDRHLLSAGDGEVKAWLWAEMLKKGCKELWRRQPPYRTSLEVPEINALLLVPKENSLILAGGDCQLHTMDLETGTFTRVLRGHTDYIHCLALRERSPEVLSGGEDGAVRLWDLRTAKEVQTIEVYKHEECSRPHNGRWIGCLATDSDWMVCGGGPALTLWHLRSSTPTTIFPIRAPQKHVTFYQDLILSAGQGRCVNQWQLSGELKAQVPGSSPGLLSLSLNQQPAAPECKVLTAAGNSCRVDVFTNLGYRAFSLSF
B5: FYTTD1 (UIF) (protein, UniProt Q96QD9 1-318)
chain: MNRFGTRLVGATATSSPPPKARSNENLDKIDMSLDDIIKLNRKEGKKQNFPRLNRRLLQQSGAQQFRMRVRWGIQQNSGFGKTSLNRRGRVMPGKRRPNGVITGLAARKTTGIRKGISPMNRPPLSDKNIEQYFPVLKRKANLLRQNEGQRKPVAVLKRPSQLSRKNNIPANFTRSGNKLNHQKDTRQATFLFRRGLKVQAQLNTEQLLDDVVAKRTRQWRTSTTNGGILTVSIDNPGAVQCPVTQKPRLTRTAVPSFLTKREQSDVKKVPKGVPLQFDINSVGKQTGMTLNERFGILKEQRATLTYNKGGSRFVTVG
B6: THOC3 (protein, UniProt Q96J01 1-351)
chain: MAVPAAAMGPSALGQSGPGSMAPWCSVSSGPSRYVLGMQELFRGHSKTREFLAHSAKVHSVAWSCDGRRLASGSFDKTASVFLLEKDRLVKENNYRGHGDSVDQLCWHPSNPDLFVTASGDKTIRIWDVRTTKCIATVNTKGENINICWSPDGQTIAVGNKDDVVTFIDAKTHRSKAEEQFKFEVNEISWNNDNNMFFLTNGNGCINILSYPELKPVQSINAHPSNCICIKFDPMGKYFATGSADALVSLWDVDELVCVRCFSRLDWPVRTLSFSHDGKMLASASEDHFIDIAEVETGDKLWEVQCESPTFTVAWHPKRPLLAFACDDKDGKYDSSREAGTVKLFGLPNDS
B7: THOC5 (protein, UniProt Q13769 1-683)
chain: MSSESSKKRKPKVIRSDGAPAEGKRNRSDTEQEGKYYSEEAEVDLRDPGRDYELYKYTCQELQRLMAEIQDLKSRGGKDVAIEIEERRIQSCVHFMTLKKLNRLAHIRLKKGRDQTHEAKQKVDAYHLQLQNLLYEVMHLQKEITKCLEFKSKHEEIDLVSLEEFYKEAPPDISKAEVTMGDPHQQTLARLDWELEQRKRLAEKYRECLSNKEKILKEIEVKKEYLSSLQPRLNSIMQASLPVQEYLFMPFDQAHKQYETARHLPPPLYVLFVQATAYGQACDKTLSVAIEGSVDEAKALFKPPEDSQDDESDSDAEEEQTTKRRRPTLGVQLDDKRKEMLKRHPLSVMLDLKCKDDSVLHLTFYYLMNLNIMTVKAKVTTAMELITPISAGDLLSPDSVLSCLYPGDHGKKTPNPANQYQFDKVGILTLSDYVLELGHPYLWVQKLGGLHFPKEQPQQTVIADHSLSASHMETTMKLLKTRVQSRLALHKQFASLEHGIVPVTSDCQYLFPAKVVSRLVKWVTVAHEDYMELHFTKDIVDAGLAGDTNLYYMALIERGTAKLQAAVVLNPGYSSIPPVFQLCLNWKGEKTNSNDDNIRAMEGEVNVCYKELCGPWPSHQLLTNQLQRLCVLLDVYLETESHDDSVEGPKEFPQEKMCLRLFRGPSRMKPFKYNHPQGFFSHR
B8: NCBP3 (protein, UniProt Q53F19 1-620)
chain: MAAVRGLRVSVKAEAPAGPALGLPSPEAESGVDRGEPEPMEVEEGELEIVPVRRSLKELIPDTSRRYENKAGSFITGIDVTSKEAIEKKEQRAKRFHFRSEVNLAQRNVALDRDMMKKAIPKVRLETIYICGVDEMSTQDVFSYFKEYPPAHIEWLDDTSCNVVWLDEMTATRALINMSSLPAQDKIRSRDASEDKSAEKRKKDKQEDSSDDDEAEEGEVEDENSSDVELDTLSQVEEESLLRNDLRPANKLAKGNRLFMRFATKDDKKELGAARRSQYYMKYGNPNYGGMKGILSNSWKRRYHSRRIQRDVIKKRALIGDDVGLTSYKHRHSGLVNVPEEPIEEEEEEEEEEEEEEEEDQDMDADDRVVVEYHEELPALKQPRERSASRRSSASSSDSDEMDYDLELKMISTPSPKKSMKMTMYADEVESQLKNIRNSMRADSVSSSNIKNRIGNKLPPEKFADVRHLLDEKRQHSRPRPPVSSTKSDIRQRLGKRPHSPEKAFSSNPVVRREPSSDVHSRLGVPRQDSKGLYADTREKKSGNLWTRLGSAPKTKEKNTKKVDHRAPGAEEDDSELQRAWGALIKEKEQSRQKKSRLDNLPSLQIEVSRESSSGSEAES
B9: THOC7 (protein, UniProt Q6I9Y2 1-204)
chain: MGAVTDDEVIRKRLLIDGDGAGDDRRINLLVKSFIKWCNSGSQEEGYSQYQRMLSTLSQCEFSMGKTLLVYDMNLREMENYEKIYKEIECSIAGAHEKIAECKKQILQAKRIRKNRQEYDALAKVIQHHPDRHETLKELEALGKELEHLSHIKESVEDKLELRRKQFHVLLSTIHELQQTLENDEKLSEVEEAQEASMETDPKP

The first test has as its target FLAG-tagged API5 4Mut (D145A/E184A/D185A/E190A) (human) (UniProt Q9BZZ5). In words: affinity purification with mass spectrometry; immunoprecipitation of FLAG-tagged API5 WT or 4Mut reconstituted in API5 knockout cells, proteomics analysis; mock as control.
On to B1, for which the binding entry was “no binding”.

In the case of B2, the binding result is on record as “binds”.

Regarding B3, the binding result was “binds”.

For the molecule B4, the binding result was “no binding”.

On to B5, for which the binding entry is “no binding”.

With B6, the binding entry is recorded as “no binding”.

Take B7: the binding entry is listed as “no binding”.

For B8, the binding entry is “no binding”.

A further test deals with FLAG-tagged API5 WT (human) (UniProt Q9BZZ5). The test is described as above.
Consider B1, for which the binding entry is on record as “binds”.

In the case of B2, the binding result is “binds”.

With B9, the binding result is on record as “no binding”.

Regarding B3, the binding entry was “binds”.

Take B4: the binding entry was “binds”.

Turning to B5, the binding entry was “binds”.

Turning to B6, the binding result is “binds”.

Turning to B7, the binding result is “binds”.

As for B8, the binding result is listed as “binds”.
